Data on 2 molecules can be found in paper PMC8592874.

The chains behind the UniProt entries cited, without tags or fusion partners.
UniProt Q9DAK2: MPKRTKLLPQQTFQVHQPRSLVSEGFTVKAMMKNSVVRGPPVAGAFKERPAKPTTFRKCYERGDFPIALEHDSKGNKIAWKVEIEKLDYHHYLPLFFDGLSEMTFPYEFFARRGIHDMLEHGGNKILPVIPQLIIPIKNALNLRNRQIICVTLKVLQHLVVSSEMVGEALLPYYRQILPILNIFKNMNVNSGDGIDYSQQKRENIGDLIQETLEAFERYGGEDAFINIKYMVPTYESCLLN

Results are given in words; binding and its absence hold for the method and conditions named. In cells and extracts the contact can be indirect. Some results given as binding are weak or reduced against the parent protein; the word gives no strength.

Assay [1] deals with Parkin coregulated gene (PACRG) protein, mouse (mouse (endogenous in testis)) (UniProt Q9DAK2). The experiment in a line: co-IP; testicular lysates of 4 to 5-month-old control or MEIG1 Y68A mutant mice; a monoclonal anti-PACRG antibody was used for the pull-down; MEIG1 detected by blot.
Assay [2] concerns the target Parkin coregulated gene (PACRG) protein, mouse (mouse (endogenous in testis)), Q9DAK2. The description is as above. The note with it: remark: other sources report otherwise.

B1: meiosis-expressed gene 1 (MEIG1) protein, mouse, wild type (protein, UniProt Q61845 1-88)
chain: MATSDVKPKSISRAKKWSEEIENLYRFQQAGYRDEIEYKQVKQVAMVDRWPETGYVKKLQRRDNTFFYYNKERECEDKEVHKVKVYVY
Take B1: the binding entry in assay [1] was “binds”.

B2: MEIG1 Y68A mutant protein, mouse, Q61845 1-88 (protein)
chain: MATSDVKPKSISRAKKWSEEIENLYRFQQAGYRDEIEYKQVKQVAMVDRWPETGYVKKLQRRDNTFFAYNKERECEDKEVHKVKVYVY
Turning to B2, in assay [2], the binding result is reported as “no binding”.
